PubChem BioAssay AID504784 | Drosophila RNAi Screening Center, 2011

Aim: 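Genome-wide knock-down for genes giving too much or too little stored lipid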 (primary screen)
System: Drosophila Kc167 embryonic cells
Reagent: long dsRNA against Drosophila genes, about 250 ng dsRNA per well
Duration: 4 days
Challenge: cells fed 400 µM oleic acid bound to BSA
Detection: 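Microscope images give a droplet-to-nucleus area ratio, taken as log and converted to a screen-wide B-score; higher values mean greater lipid storage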
Reading the numbers: droplet/nuclear area B-score: higher = more stored lipid (overstorage)
The screen tested about 17,000 reagents; this is a random part of those with a known target gene and a result. 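Each column is one replicate's B-score; the combined score over replicates was not deposited, so single values may mislead.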 A plus sign joins genes that one reagent is predicted to hit. Not all columns of the deposit are shown.

With Chc [DRSC20229], what does the deposit list?
droplet/nuclear area B-score, replicate 1: 0.414

Which result is listed for CG2839 [DRSC00544]?
droplet/nuclear area B-score, replicate 1: -0.686

What did the screen give for CG11131 [DRSC11636]?
droplet/nuclear area B-score, replicate 1: 0.0174

How did the screen score CG11131 [DRSC21736]?
droplet/nuclear area B-score, replicate 1: -1.14

With Blm [DRSC16911], how do the results read?
droplet/nuclear area B-score, replicate 1: -1.44

With ClpX [DRSC15592], what does the deposit list?
droplet/nuclear area B-score, replicate 1: -0.518

With CG2225 [DRSC03722], how do the results read?
droplet/nuclear area B-score, replicate 1: -0.0657

How did the screen score CG2225 [DRSC03723]?
droplet/nuclear area B-score, replicate 1: 0.0821

With CG6106 [DRSC19971], what was measured?
droplet/nuclear area B-score, replicate 1: 0.0927

With CG11425 [DRSC11657], what was measured?
droplet/nuclear area B-score, replicate 1: 0.527

With Cyp4s3 [DRSC20241], what was measured?
droplet/nuclear area B-score, replicate 1: 1.18

With Cyp4s3 [DRSC22340], how do the results read?
droplet/nuclear area B-score, replicate 1: 1.1

What did the screen give for CG5280 [DRSC10498]?
droplet/nuclear area B-score, replicate 1: -0.8

What is on record for CG5280 [DRSC22835]?
droplet/nuclear area B-score, replicate 1: 2.16

For Atg6 [DRSC15798], how do the results read?
droplet/nuclear area B-score, replicate 1: -1.65

For CG2100 [DRSC12303], what does the deposit list?
droplet/nuclear area B-score, replicate 1: -0.105

How did the screen score Nmnat [DRSC14644]?
droplet/nuclear area B-score, replicate 1: -0.199

Which result is listed for CG31775 + CG42586 [DRSC22289]?
droplet/nuclear area B-score, replicate 1: -0.507

With CG31775 + CG42586 [DRSC23266], what was measured?
droplet/nuclear area B-score, replicate 1: -1.15

What is on record for CG14537 [DRSC02395]?
droplet/nuclear area B-score, replicate 1: 0.482

With Ptp36E [DRSC03021], what does the deposit list?
droplet/nuclear area B-score, replicate 1: 0.000693

What is on record for hec [DRSC19895]?
droplet/nuclear area B-score, replicate 1: 0.0453

How did the screen score CG30034 (retired record) [DRSC05288]?
droplet/nuclear area B-score, replicate 1: 0.834

Which result is listed for Syx7 [DRSC11763]?
droplet/nuclear area B-score, replicate 1: -1.6

Which result is listed for CG30274 [DRSC04171]?
droplet/nuclear area B-score, replicate 1: -0.433

With RunxB [DRSC20395], what does the deposit list?
droplet/nuclear area B-score, replicate 1: 1.63

With RunxB [DRSC20525], what was measured?
droplet/nuclear area B-score, replicate 1: 0.611

For RunxB [DRSC20526], how do the results read?
droplet/nuclear area B-score, replicate 1: -3.08

How did the screen score RunxB [DRSC23150]?
droplet/nuclear area B-score, replicate 1: 0.773

What is on record for GATAe [DRSC14223]?
droplet/nuclear area B-score, replicate 1: -2.33

With GATAe [DRSC23209], how do the results read?
droplet/nuclear area B-score, replicate 1: 0.619

What did the screen give for CG15629 [DRSC00464]?
droplet/nuclear area B-score, replicate 1: 1.06

How did the screen score daw [DRSC00479]?
droplet/nuclear area B-score, replicate 1: -1.14

For Mat1 [DRSC07465], what was measured?
droplet/nuclear area B-score, replicate 1: 1.26

With CG32181 [DRSC22635], what does the deposit list?
droplet/nuclear area B-score, replicate 1: 2.03

What is on record for Trm7-32 [DRSC15741]?
droplet/nuclear area B-score, replicate 1: 0.276

What did the screen give for CG12448 [DRSC01967]?
droplet/nuclear area B-score, replicate 1: 0.273

How did the screen score CG14708 [DRSC14930]?
droplet/nuclear area B-score, replicate 1: 3.05

Which result is listed for CG12438 [DRSC02167]?
droplet/nuclear area B-score, replicate 1: 0.152

With Fhos [DRSC08943], how do the results read?
droplet/nuclear area B-score, replicate 1: 0.0048

With Fhos [DRSC10545], what does the deposit list?
droplet/nuclear area B-score, replicate 1: -1.14

For Fhos [DRSC10546], what does the deposit list?
droplet/nuclear area B-score, replicate 1: 1.32

How did the screen score Fhos [DRSC10547]?
droplet/nuclear area B-score, replicate 1: 0.823

With CG4820 [DRSC15654], what was measured?
droplet/nuclear area B-score, replicate 1: -1.32

With CG8738 [DRSC07256], what was measured?
droplet/nuclear area B-score, replicate 1: 0.159

With CG11674 [DRSC19414], what was measured?
droplet/nuclear area B-score, replicate 1: 0.363

How did the screen score Cyp12e1 [DRSC16622]?
droplet/nuclear area B-score, replicate 1: 0.216

For eIF2alpha [DRSC20327], what does the deposit list?
droplet/nuclear area B-score, replicate 1: 1.87

With CG31054 (retired record) [DRSC22134], what does the deposit list?
droplet/nuclear area B-score, replicate 1: -0.0558

For PSMG1 [DRSC12297], how do the results read?
droplet/nuclear area B-score, replicate 1: -0.092

What did the screen give for CG15036 [DRSC17968]?
droplet/nuclear area B-score, replicate 1: -1.07

Reformatted: entries from further up
gene knocked down | DRSC id | droplet/nuclear area B-score, replicate 1
RunxB | DRSC20395 | 1.63
RunxB | DRSC20525 | 0.611
RunxB | DRSC20526 | -3.08
RunxB | DRSC23150 | 0.773
GATAe | DRSC14223 | -2.33
GATAe | DRSC23209 | 0.619
CG15629 | DRSC00464 | 1.06
daw | DRSC00479 | -1.14
